US20100004390A1, “BIODEGRADABLE METAL-CHELATING POLYMERS AND VACCINES” (priority 2008, published 2010)
At least one structure is not confirmed: it was looked up by name or label, or the drawing left a doubt.

Experiment: cLogP of lipophilic cargo drugs
Details: from cLogP

Structure (SMILES): CO[C@H]1C[C@@H]2CC[C@@H](C)[C@@](O)(O2)C(=O)C(=O)N2CCCC[C@H]2C(=O)O[C@H]([C@H](C)C[C@@H]2CC[C@@H](O)[C@H](OC)C2)CC(=O)[C@H](C)/C=C(\C)[C@@H](O)[C@@H](OC)C(=O)[C@H](C)C[C@H](C)/C=C/C=C/C=C/1C [Rapamycin]
- hydrophobicity relative to Paclitaxel: about 100 fold
